Here are results for four molecules from article doi:10.1101/727677.

By UniProt entry, the sequences of proteins in these tests, tags left out. Where a name states a change or a piece, a line headed by the entry shows the natural chain unless it says otherwise. Residues count along the entry.
UniProt P17948, 27-1338: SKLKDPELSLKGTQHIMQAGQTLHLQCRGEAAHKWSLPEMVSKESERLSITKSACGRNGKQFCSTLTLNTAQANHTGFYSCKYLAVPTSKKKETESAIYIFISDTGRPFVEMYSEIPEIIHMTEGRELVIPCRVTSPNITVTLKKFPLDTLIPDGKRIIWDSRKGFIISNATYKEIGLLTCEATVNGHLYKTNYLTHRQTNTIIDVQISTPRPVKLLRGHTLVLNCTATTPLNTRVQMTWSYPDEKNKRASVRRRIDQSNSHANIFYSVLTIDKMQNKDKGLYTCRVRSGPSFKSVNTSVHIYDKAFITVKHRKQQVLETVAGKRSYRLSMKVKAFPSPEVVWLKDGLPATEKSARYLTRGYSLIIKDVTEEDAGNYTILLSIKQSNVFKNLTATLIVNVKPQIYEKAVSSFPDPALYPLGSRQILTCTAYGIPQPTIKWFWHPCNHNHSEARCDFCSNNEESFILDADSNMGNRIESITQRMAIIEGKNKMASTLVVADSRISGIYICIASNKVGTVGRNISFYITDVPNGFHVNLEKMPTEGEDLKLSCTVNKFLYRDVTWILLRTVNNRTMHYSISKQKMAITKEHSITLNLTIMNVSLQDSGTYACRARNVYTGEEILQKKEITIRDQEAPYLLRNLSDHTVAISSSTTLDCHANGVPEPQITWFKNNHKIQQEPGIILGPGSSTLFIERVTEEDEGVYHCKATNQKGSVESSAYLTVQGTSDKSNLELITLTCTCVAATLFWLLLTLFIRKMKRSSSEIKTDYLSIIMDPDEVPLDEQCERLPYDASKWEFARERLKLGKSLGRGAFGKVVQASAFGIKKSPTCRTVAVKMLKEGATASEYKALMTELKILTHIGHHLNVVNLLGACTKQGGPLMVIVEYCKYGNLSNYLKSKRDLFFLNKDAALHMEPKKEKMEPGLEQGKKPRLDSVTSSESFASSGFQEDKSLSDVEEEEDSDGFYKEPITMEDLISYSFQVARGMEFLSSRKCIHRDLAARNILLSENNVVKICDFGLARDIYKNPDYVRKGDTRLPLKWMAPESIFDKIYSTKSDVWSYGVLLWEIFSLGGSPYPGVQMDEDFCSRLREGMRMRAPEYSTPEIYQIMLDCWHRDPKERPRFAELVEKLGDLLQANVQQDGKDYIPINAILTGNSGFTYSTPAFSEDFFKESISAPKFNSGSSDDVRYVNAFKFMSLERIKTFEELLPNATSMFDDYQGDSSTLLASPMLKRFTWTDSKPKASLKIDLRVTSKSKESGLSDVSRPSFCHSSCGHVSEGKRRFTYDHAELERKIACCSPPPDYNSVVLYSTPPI
UniProt P17948, whole entry, looked up, stated change not applied: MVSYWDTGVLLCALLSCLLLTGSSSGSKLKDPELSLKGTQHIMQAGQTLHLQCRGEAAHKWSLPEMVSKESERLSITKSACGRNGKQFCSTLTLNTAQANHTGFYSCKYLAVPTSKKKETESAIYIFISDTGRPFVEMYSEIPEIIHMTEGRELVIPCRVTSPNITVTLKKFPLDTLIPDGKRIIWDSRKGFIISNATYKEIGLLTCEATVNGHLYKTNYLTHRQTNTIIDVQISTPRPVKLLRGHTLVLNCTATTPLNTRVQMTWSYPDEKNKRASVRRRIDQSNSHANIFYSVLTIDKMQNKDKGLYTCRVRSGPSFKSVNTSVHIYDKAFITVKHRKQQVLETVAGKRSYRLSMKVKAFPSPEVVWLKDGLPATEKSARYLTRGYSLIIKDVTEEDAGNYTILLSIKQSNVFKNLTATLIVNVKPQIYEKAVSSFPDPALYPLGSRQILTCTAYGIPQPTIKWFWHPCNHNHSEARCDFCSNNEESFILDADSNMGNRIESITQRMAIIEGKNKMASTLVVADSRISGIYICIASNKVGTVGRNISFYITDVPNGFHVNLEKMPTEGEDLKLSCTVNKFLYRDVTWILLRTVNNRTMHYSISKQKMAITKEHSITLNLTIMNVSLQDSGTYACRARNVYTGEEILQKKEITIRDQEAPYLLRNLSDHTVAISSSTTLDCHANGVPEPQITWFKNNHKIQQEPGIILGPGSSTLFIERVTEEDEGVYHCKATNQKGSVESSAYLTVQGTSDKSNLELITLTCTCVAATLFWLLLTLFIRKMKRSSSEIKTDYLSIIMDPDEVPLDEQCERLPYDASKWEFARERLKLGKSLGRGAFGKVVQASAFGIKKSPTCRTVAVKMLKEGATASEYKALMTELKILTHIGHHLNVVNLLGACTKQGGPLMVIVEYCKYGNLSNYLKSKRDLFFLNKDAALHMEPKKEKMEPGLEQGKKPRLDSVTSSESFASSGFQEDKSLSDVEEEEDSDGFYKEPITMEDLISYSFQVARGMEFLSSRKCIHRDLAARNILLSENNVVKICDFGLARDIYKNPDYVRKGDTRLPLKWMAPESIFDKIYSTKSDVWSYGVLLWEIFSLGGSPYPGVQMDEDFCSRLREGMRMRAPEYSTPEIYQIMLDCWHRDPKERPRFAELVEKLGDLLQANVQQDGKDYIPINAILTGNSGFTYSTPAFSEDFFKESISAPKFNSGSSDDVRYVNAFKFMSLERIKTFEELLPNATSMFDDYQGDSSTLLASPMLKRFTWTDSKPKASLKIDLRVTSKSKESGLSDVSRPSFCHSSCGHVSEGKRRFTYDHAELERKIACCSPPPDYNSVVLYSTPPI

These are yes or no findings as the source states them, for the method shown. Binding seen in cells or lysates may run through a third protein. Some binding calls cover weakened binding; strength is not graded here. For some assays here: Sequences can lack the tags named with a protein.

One assay addresses V5-tagged VEGFR1 (UniProt P17948). The assay is described as follows: FRET or BRET. A general note: BRET reads energy transfer from a luciferase to a nearby fluorophore.
Assay [1] addresses VEGFR1 (endogenous, HUVEC) (human (endogenous in HUVEC)) (UniProt P17948). The assay can be described thus: co-IP.
Assay [2] concerns the target VEGFR1 (expression vector, co-immunoprecipitation in HeLa) (UniProt P17948). The assay is described as follows: co-IP.
The target of another assay is YKEP deletion VEGFR1 (UniProt P17948). The assay is described as follows: co-IP.

B1: Flag-tagged Vav1 (protein, UniProt P15498 1-845)
chain: MELWRQCTHWLIQCRVLPPSHRVTWDGAQVCELAQALRDGVLLCQLLNNLLPHAINLREVNLRPQMSQFLCLKNIRTFLSTCCEKFGLKRSELFEAFDLFDVQDFGKVIYTLSALSWTPIAQNRGIMPFPTEEESVGDEDIYSGLSDQIDDTVEEDEDLYDCVENEEAEGDEIYEDLMRSEPVSMPPKMTEYDKRCCCLREIQQTEEKYTDTLGSIQQHFLKPLQRFLKPQDIEIIFINIEDLLRVHTHFLKEMKEALGTPGAANLYQVFIKYKERFLVYGRYCSQVESASKHLDRVAAAREDVQMKLEECSQRANNGRFTLRDLLMVPMQRVLKYHLLLQELVKHTQEAMEKENLRLALDAMRDLAQCVNEVKRDNETLRQITNFQLSIENLDQSLAHYGRPKIDGELKITSVERRSKMDRYAFLLDKALLICKRRGDSYDLKDFVNLHSFQVRDDSSGDRDNKKWSHMFLLIEDQGAQGYELFFKTRELKKKWMEQFEMAISNIYPENATANGHDFQMFSFEETTSCKACQMLLRGTFYQGYRCHRCRASAHKECLGRVPPCGRHGQDFPGTMKKDKLHRRAQDKKRNELGLPKMEVFQEYYGLPPPPGAIGPFLRLNPGDIVELTKAEAEQNWWEGRNTSTNEIGWFPCNRVKPYVHGPPQDLSVHLWYAGPMERAGAESILANRSDGTFLVRQRVKDAAEFAISIKYNVEVKHIKIMTAEGLYRITEKKAFRGLTELVEFYQQNSLKDCFKSLDTTLQFPFKEPEKRTISRPAVGSTKYFGTAKARYDFCARDRSELSLKEGDIIKILNKKGQQGWWRGEIYGRVGWFPANYVEEDYSEYC
Take B1: the binding entry with V5-tagged VEGFR1 is “binds”.

B2: Vav1 (endogenous, HUVEC) (protein, UniProt P15498 1-845)
chain: MELWRQCTHWLIQCRVLPPSHRVTWDGAQVCELAQALRDGVLLCQLLNNLLPHAINLREVNLRPQMSQFLCLKNIRTFLSTCCEKFGLKRSELFEAFDLFDVQDFGKVIYTLSALSWTPIAQNRGIMPFPTEEESVGDEDIYSGLSDQIDDTVEEDEDLYDCVENEEAEGDEIYEDLMRSEPVSMPPKMTEYDKRCCCLREIQQTEEKYTDTLGSIQQHFLKPLQRFLKPQDIEIIFINIEDLLRVHTHFLKEMKEALGTPGAANLYQVFIKYKERFLVYGRYCSQVESASKHLDRVAAAREDVQMKLEECSQRANNGRFTLRDLLMVPMQRVLKYHLLLQELVKHTQEAMEKENLRLALDAMRDLAQCVNEVKRDNETLRQITNFQLSIENLDQSLAHYGRPKIDGELKITSVERRSKMDRYAFLLDKALLICKRRGDSYDLKDFVNLHSFQVRDDSSGDRDNKKWSHMFLLIEDQGAQGYELFFKTRELKKKWMEQFEMAISNIYPENATANGHDFQMFSFEETTSCKACQMLLRGTFYQGYRCHRCRASAHKECLGRVPPCGRHGQDFPGTMKKDKLHRRAQDKKRNELGLPKMEVFQEYYGLPPPPGAIGPFLRLNPGDIVELTKAEAEQNWWEGRNTSTNEIGWFPCNRVKPYVHGPPQDLSVHLWYAGPMERAGAESILANRSDGTFLVRQRVKDAAEFAISIKYNVEVKHIKIMTAEGLYRITEKKAFRGLTELVEFYQQNSLKDCFKSLDTTLQFPFKEPEKRTISRPAVGSTKYFGTAKARYDFCARDRSELSLKEGDIIKILNKKGQQGWWRGEIYGRVGWFPANYVEEDYSEYC
Regarding B2, the binding result in assay [1] was “binds”.

B3: Vav1 (HA tagged) (protein, UniProt P15498 1-845)
chain: MELWRQCTHWLIQCRVLPPSHRVTWDGAQVCELAQALRDGVLLCQLLNNLLPHAINLREVNLRPQMSQFLCLKNIRTFLSTCCEKFGLKRSELFEAFDLFDVQDFGKVIYTLSALSWTPIAQNRGIMPFPTEEESVGDEDIYSGLSDQIDDTVEEDEDLYDCVENEEAEGDEIYEDLMRSEPVSMPPKMTEYDKRCCCLREIQQTEEKYTDTLGSIQQHFLKPLQRFLKPQDIEIIFINIEDLLRVHTHFLKEMKEALGTPGAANLYQVFIKYKERFLVYGRYCSQVESASKHLDRVAAAREDVQMKLEECSQRANNGRFTLRDLLMVPMQRVLKYHLLLQELVKHTQEAMEKENLRLALDAMRDLAQCVNEVKRDNETLRQITNFQLSIENLDQSLAHYGRPKIDGELKITSVERRSKMDRYAFLLDKALLICKRRGDSYDLKDFVNLHSFQVRDDSSGDRDNKKWSHMFLLIEDQGAQGYELFFKTRELKKKWMEQFEMAISNIYPENATANGHDFQMFSFEETTSCKACQMLLRGTFYQGYRCHRCRASAHKECLGRVPPCGRHGQDFPGTMKKDKLHRRAQDKKRNELGLPKMEVFQEYYGLPPPPGAIGPFLRLNPGDIVELTKAEAEQNWWEGRNTSTNEIGWFPCNRVKPYVHGPPQDLSVHLWYAGPMERAGAESILANRSDGTFLVRQRVKDAAEFAISIKYNVEVKHIKIMTAEGLYRITEKKAFRGLTELVEFYQQNSLKDCFKSLDTTLQFPFKEPEKRTISRPAVGSTKYFGTAKARYDFCARDRSELSLKEGDIIKILNKKGQQGWWRGEIYGRVGWFPANYVEEDYSEYC
B3: the binding entry is given as “binds” in assay [2] and “no binding” with YKEP deletion VEGFR1.

B4: Vav1 (GFP tagged) (protein, UniProt P15498 1-845)
chain: MELWRQCTHWLIQCRVLPPSHRVTWDGAQVCELAQALRDGVLLCQLLNNLLPHAINLREVNLRPQMSQFLCLKNIRTFLSTCCEKFGLKRSELFEAFDLFDVQDFGKVIYTLSALSWTPIAQNRGIMPFPTEEESVGDEDIYSGLSDQIDDTVEEDEDLYDCVENEEAEGDEIYEDLMRSEPVSMPPKMTEYDKRCCCLREIQQTEEKYTDTLGSIQQHFLKPLQRFLKPQDIEIIFINIEDLLRVHTHFLKEMKEALGTPGAANLYQVFIKYKERFLVYGRYCSQVESASKHLDRVAAAREDVQMKLEECSQRANNGRFTLRDLLMVPMQRVLKYHLLLQELVKHTQEAMEKENLRLALDAMRDLAQCVNEVKRDNETLRQITNFQLSIENLDQSLAHYGRPKIDGELKITSVERRSKMDRYAFLLDKALLICKRRGDSYDLKDFVNLHSFQVRDDSSGDRDNKKWSHMFLLIEDQGAQGYELFFKTRELKKKWMEQFEMAISNIYPENATANGHDFQMFSFEETTSCKACQMLLRGTFYQGYRCHRCRASAHKECLGRVPPCGRHGQDFPGTMKKDKLHRRAQDKKRNELGLPKMEVFQEYYGLPPPPGAIGPFLRLNPGDIVELTKAEAEQNWWEGRNTSTNEIGWFPCNRVKPYVHGPPQDLSVHLWYAGPMERAGAESILANRSDGTFLVRQRVKDAAEFAISIKYNVEVKHIKIMTAEGLYRITEKKAFRGLTELVEFYQQNSLKDCFKSLDTTLQFPFKEPEKRTISRPAVGSTKYFGTAKARYDFCARDRSELSLKEGDIIKILNKKGQQGWWRGEIYGRVGWFPANYVEEDYSEYC
With B4, the binding entry in assay [2] is “binds”.
